Results are given in words; binding and its absence hold for the method and conditions named. For some assays here: In cells and extracts the contact can be indirect. Some entries that bind do so weakly or less than the wild type.

Protein sequences, listed by entry. Tags and fused reporters are not part of them. Lines headed by an entry give the natural chain unless they say otherwise; changes in a name come on top.
UniProt Q07820: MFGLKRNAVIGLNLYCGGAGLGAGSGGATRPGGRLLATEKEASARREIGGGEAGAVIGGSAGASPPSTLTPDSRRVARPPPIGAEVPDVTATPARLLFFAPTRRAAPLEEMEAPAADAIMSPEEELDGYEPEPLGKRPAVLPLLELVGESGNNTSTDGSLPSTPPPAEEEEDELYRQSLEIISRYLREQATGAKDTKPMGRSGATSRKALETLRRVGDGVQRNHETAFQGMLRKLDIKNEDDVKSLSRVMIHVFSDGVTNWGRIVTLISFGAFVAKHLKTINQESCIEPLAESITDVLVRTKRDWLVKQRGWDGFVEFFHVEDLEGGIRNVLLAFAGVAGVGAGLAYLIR
UniProt Q07817: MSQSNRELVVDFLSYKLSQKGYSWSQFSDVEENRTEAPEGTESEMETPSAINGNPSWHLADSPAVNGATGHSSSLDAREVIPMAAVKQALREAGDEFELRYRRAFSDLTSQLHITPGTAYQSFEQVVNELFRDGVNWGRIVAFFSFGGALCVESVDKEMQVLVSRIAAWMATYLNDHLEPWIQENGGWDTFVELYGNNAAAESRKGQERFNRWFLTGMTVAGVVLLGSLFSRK
UniProt P10415: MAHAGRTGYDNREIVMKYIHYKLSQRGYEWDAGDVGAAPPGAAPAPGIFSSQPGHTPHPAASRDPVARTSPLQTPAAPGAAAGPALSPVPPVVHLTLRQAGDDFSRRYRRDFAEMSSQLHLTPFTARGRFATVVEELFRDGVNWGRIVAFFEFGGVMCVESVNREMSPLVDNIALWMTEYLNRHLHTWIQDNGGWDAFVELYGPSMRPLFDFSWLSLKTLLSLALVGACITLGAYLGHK
UniProt Q00987: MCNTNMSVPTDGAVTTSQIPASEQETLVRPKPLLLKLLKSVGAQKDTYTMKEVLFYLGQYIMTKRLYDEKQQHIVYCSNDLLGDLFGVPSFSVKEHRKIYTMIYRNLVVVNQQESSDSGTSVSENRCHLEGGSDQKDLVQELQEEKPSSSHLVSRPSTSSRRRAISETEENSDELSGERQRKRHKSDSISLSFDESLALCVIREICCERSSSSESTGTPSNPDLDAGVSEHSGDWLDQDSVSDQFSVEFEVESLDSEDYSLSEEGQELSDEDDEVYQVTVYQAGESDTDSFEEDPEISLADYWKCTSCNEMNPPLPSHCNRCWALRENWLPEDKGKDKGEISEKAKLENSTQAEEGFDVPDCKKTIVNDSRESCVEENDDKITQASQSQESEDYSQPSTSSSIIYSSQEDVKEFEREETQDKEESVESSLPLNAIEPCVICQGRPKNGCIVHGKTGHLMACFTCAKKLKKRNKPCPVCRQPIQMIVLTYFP

In patent US20190119357A1, “MESSENGER RIBONUCLEIC ACIDS FOR THE PRODUCTION OF INTRACELLULAR BINDING POLYPEPTIDES AND METHODS OF USE THEREOF” (ModernaTX, Inc., priority 2015, published 2019) one finds binding data, which are given here for four molecules.

The target of one experiment is MCL-1 (human) (UniProt Q07820). As to the kind of experiment: co-immunoprecipitation from lysates of mRNA-transfected HeLa cells.
For the next experiment, the target named is BCL-XL (human) (UniProt Q07817). As to the kind of experiment: co-immunoprecipitation from mRNA-transfected cells.
The target of the next experiment is BCL-2 (human) (UniProt P10415). As to the kind of experiment: co-immunoprecipitation from mRNA-transfected cells.
The target of experiment [1] is MDM2 (UniProt Q00987). As to the kind of experiment: immunoprecipitation from transfected HCT116 cells (FIG. 26).
For experiment [2], the target named is MDM2 (UniProt Q00987). As to the kind of experiment: anti-V5 immunoprecipitation from transfected HCT116 cell lysates, blot probed with anti-MDM2.

B1: SQT-Noxa-BH3 (designed binder)
chain: MIPRPAELEVECATQLRRFGDKLNFRQKLLGLSEAKPATPEIQEIVDKVKPQLEEKTNETYGKLEAVQYKTQVLASTNYYIKVRAGDNKYMHLKVFNGPPGQNADRVLTGYQVDKNKDDELTGFDYKDDDDK
Regarding B1, in the experiment with MCL-1 (human), the binding result is “binds”.

B2: SQT-PUMA-BH3 (designed binder)
chain: MIPREEQWAREIGAQLRRMADDLNAQYERRGLSEAKPATPEIQEIVDKVKPQLEEKTNETYGKLEAVQYKTQVLASTNYYIKVRAGDNKYMHLKVFNGPPGQNADRVLTGYQVDKNKDDELTGFDYKDDDDK
With B2, the binding result in the experiment with BCL-XL (human), with BCL-2 (human) and in the experiment with MCL-1 (human) was “binds” in each case.

B3: SQT-Bad-BH3 (designed binder)
chain: MIPRNLWAAQRYGRELRRMSDEFVDSFKKGGLSEAKPATPEIQEIVDKVKPQLEEKTNETYGKLEAVQYKTQVLASTNYYIKVRAGDNKYMHLKVFNGPPGQNADRVLTGYQVDKNKDDELTGFDYKDDDDK
As for B3, the binding entry with BCL-XL (human) and with BCL-2 (human) was “binds” each time.

B4: SQT(MDM2)(nt).P3848.cV5 (designed binder)
chain: MIPRLTFEHYWAQLTSGLSEAKPATPEIQEIVDKVKPQLEEKTNETYGKLEAVQYKTQVLASTNYYIKVRAGDNKYMHLKVFNGPPGQNADRVLTGYQVDKNKDDELTGFGKPIPNPLLGLDST
Turning to B4, the binding entry in the experiment with MDM2 [1] and in the experiment with MDM2 [2] was “binds” throughout.
